Data as given in PubChem BioAssay AID743121 (NCATS, 2013).
Here is a random part of about 26,000 deposited reagents. Of all reagents, 167 (0.63%) were called active. 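Calls are per gene from RSA p-values that are not deposited; an individual active-marked siRNA can sensitise only weakly.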

Test: 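Partners whose loss is lethal together with topoisomerase I blockade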 (primary screen)
Cell system: MDA-MB-231 cells, a human breast cancer line
Reagents: single siRNA against human genes, 20 nM siRNA (0.8 pmol per well)
Duration: 120 h (drug added 48 h after transfection, read 72 h later)
Challenge: camptothecin 20 nM (about EC30) for 72 h; vehicle 0.1% DMSO in parallel plates
Detection: 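CellTiter-Glo ATP signal, scaled to control siRNA as percent viability; sensitisation given as log2 of untreated divided by camptothecin-treated viability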
Reading the numbers: log2 vehicle/camptothecin viability: higher = stronger sensitisation to camptothecin; viability with camptothecin and viability without drug: higher = more viable cells
Call rule: 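Each gene scored by redundant siRNA activity (RSA) over its individual siRNA ratios; a gene is called active at p < 0.001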

The opening 2 records, to show the layout:
target | PubChem SID | log2 vehicle/camptothecin viability | viability with camptothecin (% of control) | viability without drug (% of control) | outcome
HAS1 (hyaluronan synthase 1) | SID164368529 | 0.445 | 69.4 | 94.5 | inactive
HAS1 (hyaluronan synthase 1) | SID164368530 | -0.191 | 73 | 63.9 | inactive

Main list, from the start:
target | PubChem SID | log2 vehicle/camptothecin viability | viability with camptothecin (% of control) | viability without drug (% of control) | outcome
HAS1 (hyaluronan synthase 1) | SID164368529 | 0.445 | 69.4 | 94.5 | inactive
HAS1 (hyaluronan synthase 1) | SID164368530 | -0.191 | 73 | 63.9 | inactive
HAS1 (hyaluronan synthase 1) | SID164368531 | -0.778 | 50.7 | 29.6 | inactive
HAS1 (hyaluronan synthase 1) | SID164368532 | -0.497 | 65.9 | 46.7 | inactive
FZD1 (frizzled class receptor 1) | SID164396860 | -0.399 | 38.7 | 29.4 | inactive
FZD1 (frizzled class receptor 1) | SID164396861 | -0.257 | 64.9 | 54.3 | inactive
FZD1 (frizzled class receptor 1) | SID164396862 | -0.436 | 75.6 | 55.9 | inactive
FZD1 (frizzled class receptor 1) | SID164396864 | -0.0198 | 103 | 101 | inactive
AGER (advanced glycosylation end-product specific receptor) | SID164352749 | -0.315 | 54.4 | 43.7 | inactive
AGER (advanced glycosylation end-product specific receptor) | SID164352751 | 0.0351 | 82.1 | 84.1 | inactive
AGER (advanced glycosylation end-product specific receptor) | SID164352753 | -0.388 | 65.2 | 49.8 | inactive
AGER (advanced glycosylation end-product specific receptor) | SID164352754 | 0.336 | 32.5 | 41 | inactive
TRIM23 (tripartite motif containing 23) | SID164353929 | 0.388 | 42.5 | 55.6 | inactive
TRIM23 (tripartite motif containing 23) | SID164353930 | -0.143 | 102 | 92.4 | inactive
TRIM23 (tripartite motif containing 23) | SID164353933 | 0.0549 | 95.1 | 98.8 | inactive
PIP5K1C (phosphatidylinositol-4-phosphate 5-kinase type 1 gamma) | SID164447758 | -0.149 | 69.9 | 63.1 | inactive
PIP5K1C (phosphatidylinositol-4-phosphate 5-kinase type 1 gamma) | SID164447759 | 0.179 | 57.1 | 64.6 | inactive
PIP5K1C (phosphatidylinositol-4-phosphate 5-kinase type 1 gamma) | SID164447760 | -0.294 | 120 | 97.6 | inactive
PIP5K1C (phosphatidylinositol-4-phosphate 5-kinase type 1 gamma) | SID164447761 | -0.0764 | 68.7 | 65.1 | inactive
XPA (XPA, DNA damage recognition and repair factor) | SID164394215 | -0.148 | 94.9 | 85.6 | inactive
XPA (XPA, DNA damage recognition and repair factor) | SID164394216 | -0.26 | 118 | 98.8 | inactive
XPA (XPA, DNA damage recognition and repair factor) | SID164394220 | -0.432 | 63.5 | 47.1 | inactive
XPA (XPA, DNA damage recognition and repair factor) | SID164394221 | -0.337 | 75.9 | 60.1 | inactive
HDAC5 (histone deacetylase 5) | SID164408074 | -0.291 | 94.2 | 77 | inactive
HDAC5 (histone deacetylase 5) | SID164408076 | 0.0904 | 60.8 | 64.7 | inactive
HDAC5 (histone deacetylase 5) | SID164408078 | -0.133 | 91.7 | 83.7 | inactive
HDAC5 (histone deacetylase 5) | SID164408080 | 0.0549 | 47 | 48.8 | inactive
FXYD5 (FXYD domain containing ion transport regulator 5) | SID164476832 | -0.433 | 53.9 | 39.9 | inactive
FXYD5 (FXYD domain containing ion transport regulator 5) | SID164476833 | -0.37 | 56.3 | 43.5 | inactive
FXYD5 (FXYD domain containing ion transport regulator 5) | SID164476835 | -0.0239 | 80.4 | 79.1 | inactive
FXYD5 (FXYD domain containing ion transport regulator 5) | SID164476836 | 0.451 | 24.7 | 33.8 | inactive
MARK4 (microtubule affinity regulating kinase 4) | SID164496288 | -0.558 | 55.2 | 37.5 | inactive
MARK4 (microtubule affinity regulating kinase 4) | SID164496289 | 0.236 | 66.9 | 78.8 | inactive
MARK4 (microtubule affinity regulating kinase 4) | SID164496290 | -0.0142 | 105 | 104 | inactive
MARK4 (microtubule affinity regulating kinase 4) | SID164496291 | -0.582 | 74.5 | 49.8 | inactive
USP6 (ubiquitin specific peptidase 6) | SID164401696 | -0.54 | 83 | 57.1 | inactive
USP6 (ubiquitin specific peptidase 6) | SID164401700 | 0.0763 | 58.2 | 61.4 | inactive
USP6 (ubiquitin specific peptidase 6) | SID164401703 | 0.0329 | 82.3 | 84.2 | inactive
MPIG6B (megakaryocyte and platelet inhibitory receptor G6b) | SID164536530 | 0.121 | 13.3 | 14.5 | inactive
MPIG6B (megakaryocyte and platelet inhibitory receptor G6b) | SID164536531 | -0.133 | 55.9 | 51 | inactive
MPIG6B (megakaryocyte and platelet inhibitory receptor G6b) | SID164536532 | -0.14 | 66.4 | 60.3 | inactive
MPIG6B (megakaryocyte and platelet inhibitory receptor G6b) | SID164536535 | -0.555 | 57.4 | 39 | inactive
ADORA2A (adenosine A2a receptor) | SID164352476 | 0.0162 | 48.4 | 49 | inactive
ADORA2A (adenosine A2a receptor) | SID164352477 | -0.486 | 68.8 | 49.1 | inactive
ADORA2A (adenosine A2a receptor) | SID164352479 | -0.22 | 91.7 | 78.7 | inactive
ADORA2A (adenosine A2a receptor) | SID164352481 | -0.0574 | 92.5 | 88.9 | inactive
CRY2 (cryptochrome circadian regulator 2) | SID164359818 | -0.448 | 39.1 | 28.7 | inactive
CRY2 (cryptochrome circadian regulator 2) | SID164359820 | -0.265 | 72.2 | 60.1 | inactive
CRY2 (cryptochrome circadian regulator 2) | SID164359821 | -0.183 | 102 | 89.5 | inactive
CRY2 (cryptochrome circadian regulator 2) | SID164359822 | -0.0787 | 108 | 102 | inactive
TNFSF8 (TNF superfamily member 8) | SID164357213 | 0.718 | 13.6 | 22.4 | inactive
TNFSF8 (TNF superfamily member 8) | SID164357215 | 0.066 | 70.6 | 74 | inactive
TNFSF8 (TNF superfamily member 8) | SID164357217 | -0.226 | 79.8 | 68.3 | inactive
TNFSF8 (TNF superfamily member 8) | SID164357218 | -0.385 | 89.6 | 68.6 | inactive
IQGAP3 (IQ motif containing GTPase activating protein 3) | SID164568610 | -0.233 | 50.4 | 42.8 | inactive
IQGAP3 (IQ motif containing GTPase activating protein 3) | SID164568612 | -0.098 | 79.8 | 74.6 | inactive
IQGAP3 (IQ motif containing GTPase activating protein 3) | SID164568615 | -0.258 | 53.4 | 44.6 | inactive
IQGAP3 (IQ motif containing GTPase activating protein 3) | SID164568616 | -0.205 | 43.2 | 37.5 | inactive
TXN (thioredoxin) | SID164393043 | -0.472 | 75.8 | 54.6 | inactive
TXN (thioredoxin) | SID164393044 | -0.00107 | 106 | 106 | inactive
TXN (thioredoxin) | SID164393045 | 0.0588 | 105 | 109 | inactive
TXN (thioredoxin) | SID164393046 | -0.141 | 89.9 | 81.5 | inactive
MEGF8 (multiple EGF like domains 8) | SID164362842 | -0.511 | 34.1 | 23.9 | inactive
MEGF8 (multiple EGF like domains 8) | SID164362843 | 0.0288 | 71 | 72.4 | inactive
MEGF8 (multiple EGF like domains 8) | SID164362844 | -0.181 | 52.8 | 46.6 | inactive
MEGF8 (multiple EGF like domains 8) | SID164362850 | -0.0572 | 98.2 | 94.4 | inactive
WDR46 (WD repeat domain 46) | SID164402814 | -0.466 | 89.5 | 64.8 | inactive
WDR46 (WD repeat domain 46) | SID164402816 | -0.0904 | 80 | 75.2 | inactive
WDR46 (WD repeat domain 46) | SID164402817 | -0.297 | 75.3 | 61.3 | inactive
WDR46 (WD repeat domain 46) | SID164402822 | -0.377 | 65.6 | 50.5 | inactive
